PubChem BioAssay AID504784 | Drosophila RNAi Screening Center | 2011
In all, the deposit lists about 17,000 reagents; shown is an unselected part of those with a known target gene and a result. 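Each column is one replicate's B-score; the combined score over replicates was not deposited, so single values may mislead.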 Names joined by + are all predicted targets of the reagent. Further read-outs or replicates are left out here.

Aim: 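Fly genes whose silencing alters how much lipid cells keep in droplets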 (primary screen)
Cells: Drosophila Kc167 embryonic cells
Reagent: long dsRNA against Drosophila genes, about 250 ng dsRNA per well
Timing: 4 days
Challenge: cells fed 400 µM oleic acid bound to BSA
Read-out: 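Microscope images give a droplet-to-nucleus area ratio, taken as log and converted to a screen-wide B-score; higher values mean greater lipid storage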
Direction: droplet/nuclear area B-score: higher = more stored lipid (overstorage)

"droplet/nuclear area B-score, replicate 1","droplet/nuclear area B-score, replicate 2",predicted target,DRSC id
-0.176,0.89,AsnS,DRSC11468
0.127,-0.697,Cwc25,DRSC00545
1.16,-0.045,CG12320,DRSC14498
-0.423,-0.141,CG13962,DRSC02304
1.68,2.5,Gmer,DRSC04376
-1.22,-4.08,Ir94b,DRSC21439
0.186,0.246,Drsl4,DRSC08034
0.376,0.709,Tsp42Eh,DRSC06190
2.44,-0.798,Lime,DRSC06752
1.2,,SkpA,DRSC18833
1.05,,CG15515,DRSC15054
0.861,1.83,CG2528,DRSC03724
-0.673,0.162,bard,DRSC14796
0.728,-0.445,CG14929 + CG4970,DRSC02411
-2.06,-0.103,CG14929 + CG4970,DRSC02796
0.629,-0.768,Ssb-c31a,DRSC03443
-0.664,-1.58,Vamp7,DRSC06599
-0.483,0.649,p115,DRSC18813
-0.0102,-0.381,CG17658,DRSC04292
0.116,0.0986,Cyp6a9,DRSC07385
2.64,1.08,Fdx1,DRSC11167
-0.326,-0.118,RpL37-1,DRSC20149
0.352,4.66,RpL37-1,DRSC21646
0.0787,-0.0714,CG9641,DRSC00721
0.722,0.165,nvd,DRSC22139
0.508,0.165,Sans,DRSC06357
-2.41,-2.53,Hrb27C,DRSC03347
-0.0722,-3.83,Mondo,DRSC02667
0.763,-1.61,Mondo,DRSC02668
-0.0245,-0.599,Mondo,DRSC22006
0.462,0.92,GluRS-m,DRSC10431
1.94,0.248,CG13488,DRSC04133
0.431,-1.59,Cog4,DRSC03057
0.0712,0.98,GEFmeso,DRSC06748
-0.0762,-0.00163,GEFmeso,DRSC06940
0.994,0.0394,GEFmeso,DRSC21475
5.95,-0.796,RpS12,DRSC11270
-0.938,0.252,VepD,DRSC22318
0.372,-1.36,Cap-D2,DRSC15401
0.0132,-0.0495,CG13332,DRSC06367
2.2,1.92,lectin-30A,DRSC02560
1.85,-0.0577,PolE2,DRSC09737
-1.81,-0.74,CG12818,DRSC14556
1.14,0.00271,rpk,DRSC12386
-0.759,0.0345,rpk,DRSC21656
1.21,-0.962,Mst89B,DRSC16748
0.152,0.0598,CG4115,DRSC15545
-0.491,-1.07,sba,DRSC13643
,-0.0188,sba,DRSC17050
-5.07,5.26,Cyp6d5,DRSC16634
0.386,-0.62,CG32486,DRSC08413
-0.517,0.146,CG32486,DRSC08488
-1.62,1.07,Pcyt1,DRSC08157
0.507,-0.677,Ppcs,DRSC14127
-0.475,-0.0242,Tsf3,DRSC06849
-0.822,0.729,Pp2C1,DRSC18699
0.182,1.49,Pp2C1,DRSC23287
-0.322,-0.869,sPLA2,DRSC06041
-1.11,-0.353,CG31928,DRSC00293
-1.88,0.1,Psa,DRSC08152
0.0725,-0.528,CG9114,DRSC20155
-0.121,-1.22,Hr39,DRSC03346
0.173,-0.739,Secp43,DRSC00454
2.16,2.06,CG43689,DRSC18383
1.47,-0.0401,CG43689,DRSC22467
-0.022,-0.57,CG43689,DRSC23070
0.173,0.0141,CG11313,DRSC14295
0.528,-1.66,imd,DRSC05928
0.674,-1.8,Bx,DRSC19350
-0.467,-0.34,Bx,DRSC23048
1.1,,CG4293,DRSC18557
0.0719,-0.501,Flad2,DRSC02531
-0.0281,0.113,CG31752,DRSC22599
0.233,0.0178,HPS4,DRSC06906
0.634,-0.855,Hex-C,DRSC07079
1.01,0.246,DIP-delta,DRSC10214
0.27,-0.911,DIP-delta,DRSC10450
2.25,0.455,Syx18,DRSC14628
1.56,0.542,CG15873,DRSC04277
-1.86,-0.885,ccb,DRSC20501
-0.454,-1.38,ppk29,DRSC04205
0.821,0.872,ACOX1,DRSC05941
0.151,0.155,CG16854,DRSC02536

Single entries from the entries so far:
RpS12 [DRSC11270], droplet/nuclear area B-score, replicate 2 = -0.796
Result for GluRS-m [DRSC10431] under “droplet/nuclear area B-score, replicate 1”: 0.462
Result for CG14929 + CG4970 [DRSC02796] under “droplet/nuclear area B-score, replicate 1”: -2.06
Under “droplet/nuclear area B-score, replicate 1”, CG17658 [DRSC04292] reads -0.0102
Fdx1 [DRSC11167], droplet/nuclear area B-score, replicate 1 → 2.64
For “droplet/nuclear area B-score, replicate 1”, CG4293 [DRSC18557] shows 1.1
